This experiment deals with p300-Myc (UniProt Q09472). The experiment in a line: co-IP; COS-1 cells transfected with HA-tagged c-Myb or c-Myb D152V and p300-Myc, lysed 24 h after transfection; immunoprecipitation with anti-p300 and Protein A Dynabeads, 2 h at 4 °C; western blot with anti-HA.

Sequences of proteins named here, by UniProt entry; tags and fusion partners are left off. A change or cut given only in a name is not applied to a line headed by its entry.
UniProt Q09472: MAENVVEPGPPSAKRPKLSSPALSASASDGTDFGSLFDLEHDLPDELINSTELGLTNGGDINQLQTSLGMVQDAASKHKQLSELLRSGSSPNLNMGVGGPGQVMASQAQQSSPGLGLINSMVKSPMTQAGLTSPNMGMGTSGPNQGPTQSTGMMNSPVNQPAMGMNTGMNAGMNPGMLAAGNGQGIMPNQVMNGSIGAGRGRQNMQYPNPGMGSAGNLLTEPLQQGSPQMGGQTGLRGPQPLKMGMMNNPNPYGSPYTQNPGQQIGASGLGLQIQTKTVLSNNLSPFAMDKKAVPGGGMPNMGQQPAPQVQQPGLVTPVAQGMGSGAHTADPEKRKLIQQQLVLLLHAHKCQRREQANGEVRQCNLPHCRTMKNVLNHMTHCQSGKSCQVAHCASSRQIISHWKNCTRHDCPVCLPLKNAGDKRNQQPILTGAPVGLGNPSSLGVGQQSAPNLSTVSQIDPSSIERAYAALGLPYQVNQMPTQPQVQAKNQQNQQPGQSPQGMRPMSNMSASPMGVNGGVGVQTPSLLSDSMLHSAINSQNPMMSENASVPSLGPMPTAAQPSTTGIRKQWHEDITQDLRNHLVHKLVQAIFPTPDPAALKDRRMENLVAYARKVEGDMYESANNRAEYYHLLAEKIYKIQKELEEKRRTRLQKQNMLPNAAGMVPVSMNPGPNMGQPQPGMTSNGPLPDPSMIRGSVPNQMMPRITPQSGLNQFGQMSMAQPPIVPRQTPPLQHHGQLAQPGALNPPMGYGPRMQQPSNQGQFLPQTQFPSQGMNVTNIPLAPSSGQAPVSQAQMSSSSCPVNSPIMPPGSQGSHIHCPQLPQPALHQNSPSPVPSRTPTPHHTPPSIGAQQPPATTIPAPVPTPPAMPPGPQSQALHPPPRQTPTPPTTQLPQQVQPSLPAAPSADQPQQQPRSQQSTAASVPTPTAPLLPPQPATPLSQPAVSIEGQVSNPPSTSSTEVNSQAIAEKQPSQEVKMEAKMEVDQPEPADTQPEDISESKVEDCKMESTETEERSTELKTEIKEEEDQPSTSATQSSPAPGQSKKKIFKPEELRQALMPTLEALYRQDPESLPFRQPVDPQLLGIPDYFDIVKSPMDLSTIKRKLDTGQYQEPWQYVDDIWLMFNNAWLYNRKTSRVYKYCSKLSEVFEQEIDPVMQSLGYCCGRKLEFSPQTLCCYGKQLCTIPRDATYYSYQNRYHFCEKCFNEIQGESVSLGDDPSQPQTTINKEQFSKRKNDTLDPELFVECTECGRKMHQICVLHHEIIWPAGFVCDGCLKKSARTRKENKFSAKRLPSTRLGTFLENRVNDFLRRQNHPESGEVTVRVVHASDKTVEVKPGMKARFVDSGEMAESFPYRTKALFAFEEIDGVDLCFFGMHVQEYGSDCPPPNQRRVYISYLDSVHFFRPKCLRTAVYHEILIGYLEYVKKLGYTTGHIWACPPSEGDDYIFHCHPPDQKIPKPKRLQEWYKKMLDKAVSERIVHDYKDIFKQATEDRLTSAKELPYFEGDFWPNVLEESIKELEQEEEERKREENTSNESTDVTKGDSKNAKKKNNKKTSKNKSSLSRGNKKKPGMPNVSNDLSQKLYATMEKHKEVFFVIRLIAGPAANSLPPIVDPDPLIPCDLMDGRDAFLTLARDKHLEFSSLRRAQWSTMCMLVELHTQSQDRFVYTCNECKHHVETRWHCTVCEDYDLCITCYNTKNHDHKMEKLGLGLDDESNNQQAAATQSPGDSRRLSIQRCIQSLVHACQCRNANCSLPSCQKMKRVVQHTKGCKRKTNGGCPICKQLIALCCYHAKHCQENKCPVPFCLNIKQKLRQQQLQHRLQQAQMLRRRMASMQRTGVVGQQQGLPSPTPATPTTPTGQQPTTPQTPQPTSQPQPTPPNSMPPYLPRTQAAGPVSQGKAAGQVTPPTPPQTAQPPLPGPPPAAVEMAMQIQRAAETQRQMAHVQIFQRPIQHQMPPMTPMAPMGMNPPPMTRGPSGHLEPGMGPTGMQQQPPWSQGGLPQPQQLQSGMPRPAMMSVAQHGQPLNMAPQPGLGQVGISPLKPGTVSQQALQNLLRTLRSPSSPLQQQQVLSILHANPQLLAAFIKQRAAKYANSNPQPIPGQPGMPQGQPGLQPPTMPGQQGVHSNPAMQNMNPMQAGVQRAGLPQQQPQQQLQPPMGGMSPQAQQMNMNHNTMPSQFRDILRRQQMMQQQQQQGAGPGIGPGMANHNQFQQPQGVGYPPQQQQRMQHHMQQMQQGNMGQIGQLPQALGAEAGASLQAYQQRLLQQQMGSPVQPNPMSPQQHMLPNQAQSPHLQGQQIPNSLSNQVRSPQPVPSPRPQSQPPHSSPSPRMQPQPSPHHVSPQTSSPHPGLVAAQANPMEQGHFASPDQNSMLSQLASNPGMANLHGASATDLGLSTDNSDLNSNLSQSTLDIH
UniProt P10242: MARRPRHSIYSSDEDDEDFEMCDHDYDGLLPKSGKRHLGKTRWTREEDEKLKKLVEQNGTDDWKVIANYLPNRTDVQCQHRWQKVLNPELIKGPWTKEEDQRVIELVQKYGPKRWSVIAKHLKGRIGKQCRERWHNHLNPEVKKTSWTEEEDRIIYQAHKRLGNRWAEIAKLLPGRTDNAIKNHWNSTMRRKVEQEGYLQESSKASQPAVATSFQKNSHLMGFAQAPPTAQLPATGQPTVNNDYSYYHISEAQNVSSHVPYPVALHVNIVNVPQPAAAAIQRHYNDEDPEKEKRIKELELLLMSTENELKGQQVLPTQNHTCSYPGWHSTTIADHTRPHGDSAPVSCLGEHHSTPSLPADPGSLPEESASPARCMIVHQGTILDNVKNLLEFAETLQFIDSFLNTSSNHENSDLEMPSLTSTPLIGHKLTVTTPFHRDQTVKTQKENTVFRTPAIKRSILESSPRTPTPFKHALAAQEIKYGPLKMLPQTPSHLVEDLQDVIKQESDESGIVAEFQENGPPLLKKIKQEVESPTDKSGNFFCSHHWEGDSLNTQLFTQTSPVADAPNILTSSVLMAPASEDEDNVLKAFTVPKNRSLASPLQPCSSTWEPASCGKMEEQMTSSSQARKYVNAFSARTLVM

No constants are given. Whether binding was seen depends on the method and setting. In cells and extracts the contact can be indirect. Some entries that bind do so weakly or less than the wild type.

As for “full-length HA-tagged c-Myb (from UniProt P10242 1-640)”, the binding result is “binds”. Regarding “full-length HA-tagged c-Myb D152V (from UniProt P10242 1-640)”, the binding entry is “binds”.

The values above are taken from paper PMC6022509.
